In the assay the target is Sec12 from swine, FLAG-tagged (vTF7-3 system) (swine) (UniProt F1SED4). The assay can be described thus: co-IP.

Sequences of proteins named here, by UniProt entry; tags and fusion partners are left off. A change or cut given only in a name is not applied to a line headed by its entry.
UniProt F1SED4: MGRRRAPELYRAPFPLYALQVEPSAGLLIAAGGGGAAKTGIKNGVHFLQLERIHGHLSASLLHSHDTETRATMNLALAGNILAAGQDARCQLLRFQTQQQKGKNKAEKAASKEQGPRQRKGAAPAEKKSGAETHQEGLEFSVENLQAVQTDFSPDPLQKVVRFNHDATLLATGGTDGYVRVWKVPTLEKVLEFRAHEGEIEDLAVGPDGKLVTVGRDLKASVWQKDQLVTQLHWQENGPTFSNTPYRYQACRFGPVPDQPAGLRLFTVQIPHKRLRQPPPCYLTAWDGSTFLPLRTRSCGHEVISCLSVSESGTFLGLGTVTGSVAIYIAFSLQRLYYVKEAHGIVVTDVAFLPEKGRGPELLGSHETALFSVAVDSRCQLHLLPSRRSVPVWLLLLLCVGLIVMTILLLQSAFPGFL

This is an account of results in PMC9028839.

Results are given in words; binding and its absence hold for the method and conditions named. Binding seen in cells or lysates may run through a third protein. Binding calls can cover weak binding; strength is not graded here.

B1: FMDV 3A protein of strain O/TAW/97 (protein, UniProt Q6PMV1 1426-1568)
chain: ISIPSQKSVLYFLIEKGQHEAAIEFFEGMVHDSIKEELRPLIQQTSFVKRAFKRLKENFEVVALCLTLLANIVIMLRQARKRYQSVDDPLDGDVTLGDAEKNPLETSGASAVGFRERSPTEQGTREDANAEPVVFGREQPRAE
Turning to B1, the binding entry is “binds”.
